Experimental data reported in patent publication US4568490A (Zaidan Hojin Biseibutsu Kagaku Kenkyu Kai, priority 1981, dated 1986).

Assay: general procedure: peptide synthesis; sodium cyanoborohydride (reductive alkylation); HOBT for amidation of bleomycini
Details: late stage modification step
[1] = trihydrochloride or tetrahydrochloride (copper-free)

Substance	step yield (tetrahydrochloride) [% yield]	step yield (trihydrochloride) [% yield]	step yield [1] [% yield]
3-[4-(3-dibenzylaminopropyl)piperazin-1-yl]propylaminobleomycin	65		
3-[N,N-diethyl-N-(3'-dibenzylamino)propyl]aminopropylaminobleomycin		92	75
3-{N,N-dimethyl-N-[3'-(N,N-dimethyl-N-(3'-dibenzylaminopropyl)amino)propyl]amino}propylaminobleomycin	55		
3-{N-methyl-N-[3'-(bis(m,p-dibenzyloxybenzyl)amino)propyl]amino}propylaminobleomycin		57	
3-{N-methyl-N-[3'-(cyclooctylmethylamino)propyl]amino}propylaminobleomycin		58	
3-{N-methyl-N-[3'-(cycloundecanylmethylamino)propyl]amino}propylaminobleomycin		90	79
